In paper PMC5538625, “Perception of root‐active CLE peptides requires CORYNE function in the phloem vasculature” (EMBO Reports, 2017):
These are yes or no findings as the source states them, for the method shown. For part of these data: In cells and extracts the contact can be indirect. Some entries that bind do so weakly or less than the wild type. For part of these data: Sequences can lack the tags named with a protein. One block for each binder: values may come before it.

The chains behind the UniProt entries cited, without tags or fusion partners. Residues count along the entry.
UniProt O22476, residues 24-1196: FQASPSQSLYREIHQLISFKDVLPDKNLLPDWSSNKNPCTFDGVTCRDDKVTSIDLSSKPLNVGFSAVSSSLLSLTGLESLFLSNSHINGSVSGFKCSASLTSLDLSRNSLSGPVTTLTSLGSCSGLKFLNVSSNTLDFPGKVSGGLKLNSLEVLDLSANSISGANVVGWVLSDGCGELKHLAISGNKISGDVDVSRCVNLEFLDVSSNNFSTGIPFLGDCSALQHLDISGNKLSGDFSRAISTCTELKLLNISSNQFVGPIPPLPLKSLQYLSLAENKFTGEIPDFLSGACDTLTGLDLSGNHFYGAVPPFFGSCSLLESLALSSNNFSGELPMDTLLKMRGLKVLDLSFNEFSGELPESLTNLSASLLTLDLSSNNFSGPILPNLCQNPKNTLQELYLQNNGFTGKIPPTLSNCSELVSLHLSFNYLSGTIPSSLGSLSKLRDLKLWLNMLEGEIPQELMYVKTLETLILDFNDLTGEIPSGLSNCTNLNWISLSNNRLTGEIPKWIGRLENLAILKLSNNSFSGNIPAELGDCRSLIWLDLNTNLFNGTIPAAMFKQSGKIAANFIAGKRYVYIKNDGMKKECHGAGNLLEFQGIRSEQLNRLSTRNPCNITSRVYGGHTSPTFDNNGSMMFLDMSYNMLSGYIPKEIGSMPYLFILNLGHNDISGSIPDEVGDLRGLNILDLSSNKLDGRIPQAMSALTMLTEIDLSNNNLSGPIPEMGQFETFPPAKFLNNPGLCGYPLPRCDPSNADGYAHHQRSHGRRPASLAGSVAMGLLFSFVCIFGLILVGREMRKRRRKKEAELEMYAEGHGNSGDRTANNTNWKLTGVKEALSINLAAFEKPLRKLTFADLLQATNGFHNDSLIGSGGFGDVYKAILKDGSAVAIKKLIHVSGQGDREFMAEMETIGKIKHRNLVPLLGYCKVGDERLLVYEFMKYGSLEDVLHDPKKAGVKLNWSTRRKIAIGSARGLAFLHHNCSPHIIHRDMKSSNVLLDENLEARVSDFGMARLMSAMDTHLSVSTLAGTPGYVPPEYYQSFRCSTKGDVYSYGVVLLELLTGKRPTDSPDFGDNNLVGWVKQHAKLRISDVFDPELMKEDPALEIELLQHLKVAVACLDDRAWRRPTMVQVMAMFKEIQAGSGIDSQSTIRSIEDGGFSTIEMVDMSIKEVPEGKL

What was measured:
[1] = target: T1, BAM3 extracellular domain (BAM3-ECD) (Arabidopsis thaliana) (UniProt O65440); assay: SEC; analytical gel filtration without peptide, ectodomains stand-alone or in combination (equimolar); Superdex Increase 200, 20 mM citrate pH 5, 150 mM NaCl; both purified
T1 sequence: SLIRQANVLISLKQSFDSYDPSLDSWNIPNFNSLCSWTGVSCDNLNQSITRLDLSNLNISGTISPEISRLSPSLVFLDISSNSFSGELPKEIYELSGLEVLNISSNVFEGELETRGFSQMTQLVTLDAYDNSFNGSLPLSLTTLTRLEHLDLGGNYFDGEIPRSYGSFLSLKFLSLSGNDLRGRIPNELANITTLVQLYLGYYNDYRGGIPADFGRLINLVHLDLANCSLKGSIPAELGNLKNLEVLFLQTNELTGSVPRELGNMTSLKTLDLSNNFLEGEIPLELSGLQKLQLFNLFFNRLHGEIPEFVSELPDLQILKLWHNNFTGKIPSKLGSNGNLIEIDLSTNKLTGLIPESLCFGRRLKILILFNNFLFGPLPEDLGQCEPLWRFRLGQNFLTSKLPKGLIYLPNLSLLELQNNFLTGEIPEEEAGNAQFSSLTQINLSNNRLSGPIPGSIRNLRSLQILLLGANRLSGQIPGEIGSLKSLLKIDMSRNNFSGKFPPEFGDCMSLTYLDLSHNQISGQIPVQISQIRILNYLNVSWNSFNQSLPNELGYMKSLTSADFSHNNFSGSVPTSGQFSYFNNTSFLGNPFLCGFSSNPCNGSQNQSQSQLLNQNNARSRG

[2] = target: SERK1 extracellular domain (SERK1-ECD) (Arabidopsis thaliana) (UniProt Q94AG2); assay: as above
[3] = target: T1, BAM3 extracellular domain (BAM3-ECD) (Arabidopsis thaliana); assay: condition: 82 μM SERK1-ECD titrated into 8.2 μM BAM3-ECD + 25 μM CLE45; ITC; SERK1-ECD (82 μM) titrated into BAM3-ECD (8.2 μM) + CLE45 (25 μM); Nano ITC, 25°C, 20 mM sodium citrate pH 5, 150 mM NaCl; both purified
[4] = target: T1, BAM3 extracellular domain (BAM3-ECD) (Arabidopsis thaliana); assay: condition: 100 μg of SERK1‐ECD and equimolar BAM3‐ECD; SEC; analytical gel filtration without peptide, ectodomains stand-alone or in combination (equimolar); Superdex Increase 200, 20 mM citrate pH 5, 150 mM NaCl; both purified
[5] = target: T1, BAM3 extracellular domain (BAM3-ECD) (Arabidopsis thaliana); assay: condition: 100 μg of SERK1‐ECD and equimolar BAM3‐ECD with 25 μM CLE45; SEC; analytical gel filtration in the presence of 25 μM CLE45, equimolar ectodomains, 10 min incubation; Superdex Increase 200, 20 mM citrate pH 5, 150 mM NaCl; both purified
[6] = target: BRI1 fused to one half of YFP (BiFC) (Arabidopsis thaliana) (UniProt O22476); assay: split reporter; BiFC, one half of YFP on each protein, transient co-expression in N. benthamiana leaf epidermal cells, with (non-fluorescent) CLV2-HA co-expressed
[7] = target: T2, CLV2 fused to one half of YFP (BiFC) (Arabidopsis thaliana) (UniProt O80809); assay: split reporter; BiFC, one half of YFP on each protein, transient co-expression in N. benthamiana leaf epidermal cells, without CLV2-HA (CLV2 + CRN also with co-expressed BAM3-mTFP1)
T2 sequence: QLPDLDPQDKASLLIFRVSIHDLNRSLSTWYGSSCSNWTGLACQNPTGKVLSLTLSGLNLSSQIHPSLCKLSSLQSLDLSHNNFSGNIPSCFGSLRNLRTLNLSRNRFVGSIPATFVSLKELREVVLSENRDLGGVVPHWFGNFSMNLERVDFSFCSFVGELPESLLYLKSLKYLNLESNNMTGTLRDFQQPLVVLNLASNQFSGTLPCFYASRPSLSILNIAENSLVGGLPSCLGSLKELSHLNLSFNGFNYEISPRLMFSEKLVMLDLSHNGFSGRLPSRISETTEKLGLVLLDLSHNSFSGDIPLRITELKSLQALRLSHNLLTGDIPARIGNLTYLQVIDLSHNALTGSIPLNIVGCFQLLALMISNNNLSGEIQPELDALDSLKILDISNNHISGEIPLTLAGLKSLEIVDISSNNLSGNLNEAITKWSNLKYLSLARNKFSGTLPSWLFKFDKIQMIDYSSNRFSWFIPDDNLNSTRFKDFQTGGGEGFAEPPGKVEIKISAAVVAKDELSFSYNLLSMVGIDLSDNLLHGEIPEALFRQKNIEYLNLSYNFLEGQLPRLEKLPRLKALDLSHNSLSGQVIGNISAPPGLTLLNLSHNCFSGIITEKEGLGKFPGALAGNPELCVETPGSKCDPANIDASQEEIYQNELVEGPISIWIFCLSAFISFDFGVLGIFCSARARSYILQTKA

[8] = target: T1, BAM3 extracellular domain (BAM3-ECD) (Arabidopsis thaliana); assay: condition: 100 μg of SERK3‐ECD and equimolar BAM3‐ECD with 25 μM CLE45; SEC; analytical gel filtration in the presence of 25 μM CLE45, equimolar ectodomains, 10 min incubation; Superdex Increase 200, 20 mM citrate pH 5, 150 mM NaCl; both purified

B1: BAM3 extracellular domain (BAM3-ECD) (domain or fragment, UniProt O65440 30-651)
chain: SLIRQANVLISLKQSFDSYDPSLDSWNIPNFNSLCSWTGVSCDNLNQSITRLDLSNLNISGTISPEISRLSPSLVFLDISSNSFSGELPKEIYELSGLEVLNISSNVFEGELETRGFSQMTQLVTLDAYDNSFNGSLPLSLTTLTRLEHLDLGGNYFDGEIPRSYGSFLSLKFLSLSGNDLRGRIPNELANITTLVQLYLGYYNDYRGGIPADFGRLINLVHLDLANCSLKGSIPAELGNLKNLEVLFLQTNELTGSVPRELGNMTSLKTLDLSNNFLEGEIPLELSGLQKLQLFNLFFNRLHGEIPEFVSELPDLQILKLWHNNFTGKIPSKLGSNGNLIEIDLSTNKLTGLIPESLCFGRRLKILILFNNFLFGPLPEDLGQCEPLWRFRLGQNFLTSKLPKGLIYLPNLSLLELQNNFLTGEIPEEEAGNAQFSSLTQINLSNNRLSGPIPGSIRNLRSLQILLLGANRLSGQIPGEIGSLKSLLKIDMSRNNFSGKFPPEFGDCMSLTYLDLSHNQISGQIPVQISQIRILNYLNVSWNSFNQSLPNELGYMKSLTSADFSHNNFSGSVPTSGQFSYFNNTSFLGNPFLCGFSSNPCNGSQNQSQSQLLNQNNARSRG
binding [1]: no binding

B3: CRN fused to one half of YFP (BiFC) (protein, UniProt Q9LYU7 34-401)
chain: TSCRRRTVKHLSTTSTSSTPLESRITSKVIVISIVSGILTGLVSALVLAFLVRSIVKFMKQTPILKGPVVFSPKITPKSLHAALSNGIQLLGSDLNGKYYKMVLDNGLVVAVKRLGSLEGVGSPESSSSKSVKRRLQKELELLAGLRHRNLMSLRAYVRESDEFSLVYDYMPNGSLEDVMNKVRTKEVELGWEIRLRVAVGIVKGLQYLHFSCETQILHYNLKPTNVMLDSEFEPRLADCGLAKIMPSSHTAVSCYSAPESSQSNRYTDKSDIFSFGMILGVLLTGRDPTHPFCEESASGGSLGQWLKHLQQSGEAREALDKTILGEEVEEDEMLMALRITIICLSDFPADRPSSDELVHMLTQLHSF
binding [6]: no binding
binding [7]: binds

Continued, values first:

binding [2]: no binding (tested: 100 μg of SERK1‐ECD)
binding [3]: no binding
binding [4]: no binding
binding [5]: no binding
B2: SERK1 extracellular domain (SERK1-ECD) (domain or fragment, UniProt Q94AG2 24-213)
chain: ASANLEGDALHTLRVTLVDPNNVLQSWDPTLVNPCTWFHVTCNNENSVIRVDLGNAELSGHLVPELGVLKNLQYLELYSNNITGPIPSNLGNLTNLVSLDLYLNSFSGPIPESLGKLSKLRFLRLNNNSLTGSIPMSLTNITTLQVLDLSNNRLSGSVPDNGSFSLFTPISFANNLDLCGPVTSHPCPGS

binding [1]: no binding
binding [8]: no binding
B4: SERK3 extracellular domain (SERK3-ECD) (domain or fragment, UniProt Q94F62 26-220)
chain: NAEGDALSALKNSLADPNKVLQSWDATLVTPCTWFHVTCNSDNSVTRVDLGNANLSGQLVMQLGQLPNLQYLELYSNNITGTIPEQLGNLTELVSLDLYLNNLSGPIPSTLGRLKKLRFLRLNNNSLSGEIPRSLTAVLTLQVLDLSNNPLTGDIPVNGSFSLFTPISFANTKLTPLPASPPPPISPTPPSPAGS
